Laboratory results as given in publication doi:10.1101/2020.07.08.194076.
These are yes or no findings as the source states them, for the method shown. Binding seen in cells or lysates may run through a third protein. Where a sequence is shown, tags or fusion partners need not be part of it. Values belong to the binder of their own block, whether it stands above or below them.

Molecular target: T1, Arabidopsis phosphoribulokinase, Myc-tagged (Arabidopsis) (UniProt P25697)
T1 sequence: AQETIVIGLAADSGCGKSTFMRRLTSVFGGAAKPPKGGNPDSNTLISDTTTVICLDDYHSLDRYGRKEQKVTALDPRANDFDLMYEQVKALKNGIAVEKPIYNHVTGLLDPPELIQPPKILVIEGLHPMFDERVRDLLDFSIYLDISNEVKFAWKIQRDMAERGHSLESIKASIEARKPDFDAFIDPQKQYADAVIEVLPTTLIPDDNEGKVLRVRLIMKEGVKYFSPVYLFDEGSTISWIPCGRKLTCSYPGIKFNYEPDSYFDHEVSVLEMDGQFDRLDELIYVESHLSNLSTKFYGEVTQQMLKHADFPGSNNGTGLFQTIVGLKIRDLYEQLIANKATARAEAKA
Test: co-IP

binding: no binding
B1: Phytoene synthase 2 (PSY2), tomato, C-terminal HA tag (enzyme, UniProt P37273 26-310)
chain: EYAKTFYLGTMLMTPDRRRAIWAIYVWCRRTDELVDGPNASHITPQALDRWEARLEDIFNGRPFDMLDAALSDTVSRFPVDIQPFRDMVEGMRMDLWKSRYNNFDELYLYCYYVAGTVGLMSVPIMGIAPESKATTESVYNAALALGIANQLTNILRDVGEDARRGRVYLPQDELAQAGLSDEDIFAGKVTDKWRIFMKKQIQRARKFFDEAEKGVTELSSASRWPVLASLLLYRKILDEIEANDYNNFTRRAYVSKPKKLLTLPIAYARSLVPPKSTSCPLAKT

binding: no binding
B2: Phytoene synthase 1 (PSY1), tomato, C-terminal HA tag (enzyme, UniProt P08196 130-412)
chain: EYAKTFNLGTMLMTPERRRAIWAIYVWCRRTDELVDGPNASYITPAALDRWENRLEDVFNGRPFDMLDGALSDTVSNFPVDIQPFRDMIEGMRMDLRKSRYKNFDELYLYCYYVAGTVGLMSVPIMGIAPESKATTESVYNAALALGIANQLTNILRDVGEDARRGRVYLPQDELAQAGLSDEDIFAGRVTDKWRIFMKKQIHRARKFFDEAEKGVTELSSASRFPVWASLVLYRKILDEIEANDYNNFTKRAYVSKSKKLIALPIAYAKSLVPPTKTASLQR
